System: OCT1/OCT2 (OCT1/2)-deficient mice
Test: Targeted metabolomics / IBC levels in wild-type versus OCT1/2-deficient mice
Format: in vivo, mouse
[1] = liver, OCT1/2-deficient vs wild-type mice, females
[2] = liver, OCT1/2-deficient vs wild-type mice, males

Row | Compound | Fold-change Female (KO/WT) [1] | Fold-change Male (KO/WT) [2] | further results
1 | O=C1CC(C(=O)O)NC(=O)N1 (stereo not drawn) [dihydroorotate] | 1.14 | 0.73 | 
2 | N[C@@H](Cc1ccc(O)cc1)C(=O)O [tyrosine] | 0.93 | 0.87 | 
3 | O=P(O)(O)OC[C@H](O)CO [sn-glycero3-phosphate] | 0.93 | 1.02 | 
4 | CCCCCCCCCCCCCCCCCC(=O)O[C@H](CC(=O)[O-])C[N+](C)(C)C [carnitine-C18] | 1.49 | 1.83 | 
5 | O=P(O)(O)O[C@H]1O[C@H](CO)[C@H](O)[C@H](O)[C@H]1O [galactose 1-phosphate] | 0.94 | 0.81 | 
6 | NC(=O)CC[C@H](N)C(=O)O [glutamine] | 1.18 | 0.97 | 
7 | CCCCCCCCCCCCCCCC(=O)OC(CC(=O)[O-])C[N+](C)(C)C (stereo not drawn) [carnitine-C16] | 2.01 | 2.83 | 
8 | NC(=O)c1ccc[n+]([C@@H]2O[C@H](COP(=O)([O-])OP(=O)(O)OC[C@H]3O[C@@H](n4cnc5c(N)ncnc54)[C@H](O)[C@@H]3O)[C@@H](O)[C@H]2O)c1 [NAD] | 0.89 | 0.88 | 
9 | CC(=O)NCCCC[C@H](N)C(=O)O [acetyllysine] | 0.69 | 0.58 | 
10 | O=c1[nH]cnc2c1ncn2[C@H]1C[C@H](O)[C@@H](CO)O1 [deoxyinosine] | 0.75 | 0.82 | 
11 | NC(CCS)C(=O)O (stereo not drawn) [homocysteine] | 0.78 | 0.73 | 
12 | O=C(O)/C=C/C(=O)O [fumarate] | 1.00 | 0.73 | 
13 | N[C@@H](CCC(=O)N[C@@H](CS)C(=O)NCC(=O)O)C(=O)O [GSH] | 0.93 | 0.75 | 
14 | NCC(=O)CCC(=O)O [5-aminolevulinic acid] | 0.80 | 0.81 | 
15 | CC(=O)O[C@H](CC(=O)[O-])C[N+](C)(C)C [acetyl-carnitine] | 3.42 | 6.90 | 
16 | C[S+](CC[C@H](N)C(=O)[O-])C[C@H]1O[C@@H](n2cnc3c(N)ncnc32)[C@H](O)[C@@H]1O (stereo partly drawn) [S-adenosyl-methionine] | 0.69 | 0.60 | 
17 | Nc1ccn([C@H]2C[C@H](O)[C@@H](CO)O2)c(=O)n1 [2-deoxycytidine] | 0.88 | 0.44 | 
18 | O=C(O)[C@@H]1C[C@@H](O)CN1 [hydroxy-proline] | 0.99 | 0.83 | 
19 | O=c1[nH]cnc2c1ncn2[C@@H]1O[C@H](CO)[C@@H](O)[C@H]1O [inosine] | 1.04 | 1.03 | 
20 | carnitine-C5 | 1.64 | 2.44 | 
21 | O=c1[nH]c(=O)c2nc[nH]c2[nH]1 [xanthine] | 0.95 | 0.95 | 
22 | Nc1ccn([C@@H]2O[C@H](COP(=O)(O)O)[C@@H](O)[C@H]2O)c(=O)n1 [CMP] | 0.86 | 0.88 | 
23 | Nc1ncnc2c1ncn2[C@@H]1O[C@H](COP(=O)(O)O)[C@@H](O)[C@H]1O [AMP] | 0.93 | 0.83 | 
24 | Cc1cc2nc3c(=O)[nH]c(=O)nc-3n(C[C@H](O)[C@H](O)[C@H](O)CO)c2cc1C [riboflavin] | 0.89 | 0.96 | 

Row | Compound | Fold-change Female (KO/WT) [1] | Fold-change Male (KO/WT) [2] | further results
25 | carnitine-C14 | 2.66 | 4.30 | 
26 | NC(CCCC(=O)O)C(=O)O (stereo not drawn) [aminoadipic acid] | 0.58 | 0.48 | 
27 | O=c1ccn([C@@H]2O[C@H](COP(=O)(O)O)[C@@H](O)[C@H]2O)c(=O)[nH]1 [UMP] | 0.70 | 0.82 | 
28 | NC(N)=O [urea] | 0.94 | 0.72 | 
29 | O=C(O)[C@H]1OC(O)[C@H](O)[C@@H](O)[C@@H]1O (mixture of isomers) [glucuronate] | 0.80 | 1.19 | 
30 | CN(C)CC(=O)O [dimethylglycine] | 0.91 | 1.05 | 
31 | CCCCCCCCCCCC(=O)O[C@H](CC(=O)[O-])C[N+](C)(C)C [carnitine-C12] | 3.25 | 5.83 | 
32 | Nc1nc(=O)c2nc(CNc3ccc(C(=O)N[C@@H](CCC(=O)O)C(=O)O)cc3)cnc2[nH]1 [folic acid] | 1.07 | 1.67 | 
33 | C[N+](C)(C)CC=O [betaine aldehyde] | 2.38 | 2.82 | 
34 | O=C(O)CC(O)C(=O)O (stereo not drawn) [malic acid] | 0.97 | 0.71 | 
35 | O=C(O)[C@H]1O[C@H](OP(=O)(O)OP(=O)(O)OC[C@H]2O[C@@H](n3ccc(=O)[nH]c3=O)[C@H](O)[C@@H]2O)[C@H](O)[C@@H](O)[C@@H]1O [UDP-glucuronic acid] | 0.64 | 0.98 | 
36 | O=C(O)[C@@H](O)[C@@H](O)[C@H](O)[C@@H](O)C(=O)O [glucarate] | 0.90 | 1.01 | 
37 | Nc1ncnc2[nH]cnc12 [adenine] | 0.99 | 0.95 | 
38 | C[N+](C)(C)CCOP(=O)(O)O [phosphorylcholine] | 1.29 | 0.81 | 
39 | O=c1[nH]cnc2nc[nH]c12 [hypoxanthine] | 1.03 | 1.07 | 
40 | CC(C)C(=O)O[C@H](CC(=O)[O-])C[N+](C)(C)C [Isobutyryl-L carnitine, isobutyryl L-carnitine] | 2.97 | 5.85 | levels in plasma, wild-type mice vs OCT1/2-deficient mice (baseline plasma): significantly elevated; hepatic concentration in OCT1/2-deficient mice compared to wild-type mice (liver, male and female animals): substantially elevated; levels in the kidney (regardless of mouse genotype): negligible
41 | c1ccc2[nH]ccc2c1 [indole] |  |  | Fold-change Female (KO/WT) (mouse, in vivo): 0.66; Fold-change Male (KO/WT) (mouse, in vivo): 0.94
42 | OC[C@H]1O[C@@H](n2cnc3c(O)nc(O)nc32)[C@H](O)[C@@H]1O [xanthosine] | 0.93 | 1.14 | 
43 | NC(=O)c1ncn([C@@H]2O[C@H](CO)[C@@H](O)[C@H]2O)c1N [AICAR] | 0.69 | 0.78 | 
44 | O=C(O)[C@H](O)[C@@H](O)[C@H](O)[C@H](O)CO [gluconic acid] |  |  | Fold-change Female (KO/WT) (mouse, in vivo): 0.91; Fold-change Male (KO/WT) (mouse, in vivo): 0.79
45 | NC(=O)NCCC[C@H](N)C(=O)O [citrulline] | 0.87 | 0.55 | 
46 | Nc1ccccc1C(=O)CC(N)C(=O)O (stereo not drawn) [kynurenine] | 0.82 | 1.30 | 
47 | c1ncc2nc[nH]c2n1 [purine] | 0.84 | 0.81 | 
48 | CC(C)[C@H](N)C(=O)O [valine] | 0.83 | 0.85 | 
